From patent US20110243899A1 (NATIONAL UNIVERSITY CORPORATION CHIBA UNIVERSITY, published 2011)
No constants are given. Whether binding was seen depends on the method and setting. A result given as binding can be weak or reduced; the word gives no strength. Tags and fused reporters may be left off the sequences shown.

Legend:
[1] = target: Myc-tagged Frz8CRD (Frz8CRD-Myc), cysteine-rich domain of Frizzled 8 (Mus musculus (Mouse)); assay: IP/western
[2] = target: Myc-tagged Frz8CRD (Frz8CRD-Myc), cysteine-rich domain of Frizzled 8 (Mus musculus (Mouse)); assay: IP/western, Frz8-Myc with V5-tagged IGFBP
[3] = target: Myc-tagged Frz8CRD (Frz8CRD-Myc), cysteine-rich domain of Frizzled 8 (Mus musculus (Mouse)); assay: IP/western, Frz8CRD-Myc with IGFBP-4-V5

| binding [1] | binding [2] | binding [3] | Binder |
| --- | --- | --- | --- |
| binds | binds |  | IGFBP-1 (V5-tagged) (protein, mouse, UniProt P47876 26-272, looked up, not shown: small tags and cut ends) APQPWHCAPCTAERLGLCPPVPASCPEISRPAGCGCCPTCALPMGAACGVATARCAQGLSCRALPGEPRPLHALTRGQGACVPEPAAPATSTLFSSQHEEAKAAVVSADELSESPEMTEEQLLDSFHLMAPSREDQPILWNAISTYSSMRAREIADLKKWKEPCQRELYKVLERLAAAQQKAGDEIYKFYLPNCNKNGFYHSKQCETSLDGEAGLCWCVYPWSGKKIPGSLETRGDPNCHQYFNVHN |
| binds | binds | binds | V5-tagged IGFBP4 (IGFBP-4-V5) (protein, mouse, UniProt P47879 22-254, looked up, not shown: small tags and cut ends) DEAIHCPPCSEEKLARCRPPVGCEELVREPGCGCCATCALGLGMPCGVYTPRCGSGMRCYPPRGVEKPLRTLMHGQGVCTELSEIEAIQESLQTSDKDESEHPNNSFNPCSAHDHRCLQKHMAKIRDRSKMKIVGTPREEPRPVPQGSCQSELHRALERLAASQSRTHEDLFIIPIPNCDRNGNFHPKQCHPALDGQRGKCWCVDRKTGVKLPGGLEPKGELDCHQLADSFQE |
| binds | binds |  | IGFBP-6 (V5-tagged) (protein, mouse, UniProt P47880 26-238, looked up, not shown: small tags and cut ends) ALAGCPGCGAGMQTGCRGGCVEEEDAGSPADGCTEAGGCLRREGQPCGVYSPKCAPGLQCQPRENEEAPLRALLIGQGRCQRARGPSEETTKESKPQGGASRSRDTNHRDRQKNPRTSAAPIRPNPVQDSEMGPCRRHLDSVLQQLQTEVFRGGARGLYVPNCDLRGFYRKQQCRSSQGNRRGPCWCVDPMGQPLPVSPDGQGSTQCSARSSG |
| binds | binds |  | IGFBP-2 (V5-tagged) (protein, mouse, UniProt P47877 35-305, looked up, not shown: small tags and cut ends) EVLFRCPPCTPERLAACGPPPDAPCAELVREPGCGCCSVCARQEGEACGVYIPRCAQTLRCYPNPGSELPLKALVTGAGTCEKRRVGTTPQQVADSDDDHSEGGLVENHVDGTMNMLGGGSSAGRKPLKSGMKELAVFREKVNEQHRQMGKGAKHLSLEEPKKLRPPPARTPCQQELDQVLERISTMRLPDDRGPLEHLYSLHIPNCDKHGRYNLKQCKMSLNGQRGECWCVNPNTGKPIQGAPTIRGDPECHLFYNEQQETGGAHAQSVQ |
